Amino acid sequences for entries named in this document (tags omitted). A change or cut given only in a name is not applied to a line headed by its entry.
UniProt P10275: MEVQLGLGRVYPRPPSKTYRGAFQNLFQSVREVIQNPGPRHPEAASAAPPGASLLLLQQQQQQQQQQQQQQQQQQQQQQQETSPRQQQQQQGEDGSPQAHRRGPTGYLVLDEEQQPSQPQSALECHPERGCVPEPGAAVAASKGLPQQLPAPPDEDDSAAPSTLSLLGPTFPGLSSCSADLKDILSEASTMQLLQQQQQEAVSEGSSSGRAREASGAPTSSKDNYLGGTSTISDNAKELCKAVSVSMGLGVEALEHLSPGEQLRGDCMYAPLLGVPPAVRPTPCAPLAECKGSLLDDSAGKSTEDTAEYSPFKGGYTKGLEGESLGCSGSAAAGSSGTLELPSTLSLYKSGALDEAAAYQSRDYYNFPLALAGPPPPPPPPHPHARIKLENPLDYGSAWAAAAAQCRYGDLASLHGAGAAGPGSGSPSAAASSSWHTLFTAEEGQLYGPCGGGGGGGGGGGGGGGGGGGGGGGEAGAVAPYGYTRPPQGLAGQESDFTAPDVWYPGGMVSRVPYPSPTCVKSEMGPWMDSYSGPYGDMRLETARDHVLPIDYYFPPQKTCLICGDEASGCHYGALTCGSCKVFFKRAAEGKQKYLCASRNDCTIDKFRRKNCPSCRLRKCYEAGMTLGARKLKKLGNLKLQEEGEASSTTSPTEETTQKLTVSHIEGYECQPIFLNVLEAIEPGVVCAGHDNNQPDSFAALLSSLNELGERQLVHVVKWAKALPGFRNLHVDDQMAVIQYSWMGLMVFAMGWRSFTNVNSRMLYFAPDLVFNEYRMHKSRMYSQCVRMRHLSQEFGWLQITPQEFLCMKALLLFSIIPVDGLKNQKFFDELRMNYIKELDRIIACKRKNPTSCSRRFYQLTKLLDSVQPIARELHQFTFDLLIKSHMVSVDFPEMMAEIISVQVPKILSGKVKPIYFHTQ
UniProt Q96RI1: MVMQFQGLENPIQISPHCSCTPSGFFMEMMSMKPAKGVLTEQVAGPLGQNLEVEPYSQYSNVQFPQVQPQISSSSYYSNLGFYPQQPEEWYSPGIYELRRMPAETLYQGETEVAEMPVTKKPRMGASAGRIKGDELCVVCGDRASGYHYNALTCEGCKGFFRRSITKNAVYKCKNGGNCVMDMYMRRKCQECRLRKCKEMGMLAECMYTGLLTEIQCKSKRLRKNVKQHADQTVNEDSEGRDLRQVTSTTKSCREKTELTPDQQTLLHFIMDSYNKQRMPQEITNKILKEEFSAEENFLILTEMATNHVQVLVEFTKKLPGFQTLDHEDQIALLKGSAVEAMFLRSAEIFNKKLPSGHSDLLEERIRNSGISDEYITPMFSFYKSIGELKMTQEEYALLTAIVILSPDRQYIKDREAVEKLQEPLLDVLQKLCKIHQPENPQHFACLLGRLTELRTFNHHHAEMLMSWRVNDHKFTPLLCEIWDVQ

“And” between values parts separate entries of the source, which are not always exact repeats. Equal values may be shown once. Inconclusive means that the source gave no clear call. Such entries were picked first, then a sample of the others. Where the call is inconclusive, the potency comes from a doubtful curve fit. Some compounds were tested as several samples or in several runs, with calls that do not always agree. The source made the active and inactive calls. How the source made its calls: active means hit-call score of the fitted dose curve at least 0.9, where 1 is the maximum; inconclusive means response in the unintended direction; inactive means score below 0.9.
Each compound was assayed against Agonist Androgen Response Element (ARE), AR (gene 367) (UniProt P10275) (assay: OT_AR_ARELUC_AG_1440: Odyssey Thera (OT) 24-hour CHO-K1 Luciferase Assay for Agonist Androgen Response Element (ARE) (AID 2283379)).
Method in brief: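 CHO-K1 cells carrying an ARE-driven luciferase reporter were exposed to compounds for 24 h. Luminescence was then read after adding a D-luciferin/ATP mix, and activity was scored as a gain in signal over DMSO vehicle.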
For `O=S1(=O)OC(c2cc(Br)c(O)c(Br)c2)(c2cc(Br)c(O)c(Br)c2)c2ccccc21`, the AC50 was active: 0.214 µM.
With `CCCCCCCCOC(=O)c1ccccc1C(=O)OCCCCCCCC` the AC50 was inconclusive: 1.31 µM.
`COP(=O)(OC)OC(Br)C(Cl)(Cl)Br` (stereo unspecified) was tested, and the AC50 was inconclusive: 50 µM.
In the case of `CCCCCCCc1ccc(O)cc1`, the outcome was “inactive”.
For `C[C@H]1CCCC(=O)CCC/C=C/c2cc(O)cc(O)c2C(=O)O1`, the AC50 was inconclusive: 19.7 µM.
In the case of `CC(C)N1C(=O)N(c2ccccc2)CSC1=NC(C)(C)C`, the AC50 was inconclusive: 6.03 µM.
For `Cc1cc(Cl)ccc1OCC(=O)O`, the AC50 was active: 24 µM.

Each compound was assayed against Bile acid receptor (Homo sapiens) (UniProt Q96RI1) (assay: OT_FXR_FXRSRC1_0480: Odyssey Thera (OT) 8-hour HEK293T Protein-Complementation Assay for Farnesoid X receptor/SRC-1 Co-activator (AID 2283383)).
Method in brief: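 HEK293T cells expressing FXR and SRC-1 fused to reporter fragments were dosed with compound for 8 h; fluorescence from the reconstituted reporter marked co-activator recruitment. Gain of signal was fitted against the DMSO baseline.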
In the case of `CC(C)(c1ccccc1)c1ccc(O)cc1`, the AC50 was inconclusive: 89.3 µM and inconclusive: 90.4 µM and inconclusive: 86.9 µM.
In the case of `O=C(Nc1ccc2[nH]ccc2c1)c1cc2cc(F)ccc2n1Cc1cccc(F)c1`, the outcome was “inactive”.
With `CCC(C)c1cc([N+](=O)[O-])cc([N+](=O)[O-])c1O` (stereo unspecified) the AC50 was inconclusive: 93.4 µM.
`O=[N+]([O-])c1ccc(Cl)c([N+](=O)[O-])c1` was tested, and the AC50 was inconclusive: 23.4 µM.
With `CC(=O)[O][Hg][c]1ccccc1` the AC50 was inconclusive: 9.08 µM.
For `O=S1(=O)OC(c2cc(Br)c(O)c(Br)c2)(c2cc(Br)c(O)c(Br)c2)c2ccccc21`, the AC50 was inconclusive: 46.5 µM.
With `CCCCCCCCOC(=O)c1ccccc1C(=O)OCCCCCCCC` the outcome was “inactive”.
With `COC(=O)NC(=S)Nc1ccccc1NC(=S)NC(=O)OC` the outcome was “inactive”.
With `CCC(C)(C)c1ccc(O)cc1` the AC50 was active: 60.9 µM.

— PubChem BioAssay (EPA / NIEHS)
